Data published in the supplement of paper PMC4371806.
Over roughly 2,300 compounds, “plate-normalized OD600 growth (mean of duplicates)” has its median near 0.29; the lowest 2% begin near 0.22. Some of the results follow.

System: Escherichia coli BW25113
Test: plate-normalized OD600 growth (mean of duplicates) (OD600 (normalized)); higher = more growth (less inhibition)
Details: 10 µM
Method: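 E. coli BW25113 in LB (100 µl, 96-well, no shaking) was exposed to 10 µM of each compound from a ~30,000-member library and grown at 37°C for 24 h or 15°C for 48 h, in duplicate. Growth was read as OD600 and the duplicate ODs were normalized across screening plates to correct plate-to-plate variation. Hits were >3σ below the mean OD600 at 15°C and <2σ below the mean at 37°C.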

| Compound | plate-normalized OD600 growth (temperature: 15°C, 48 h) | plate-normalized OD600 growth (temperature: 37°C, 24 h) |
| --- | --- | --- |
| CC12CCC3C(CC=C4CC(O)CCC43C)C1C/C(=C\c1ccc(C(F)(F)F)cc1)C2=O (stereo unspecified) | 0.248 | 0.621 |
| Cc1ccc(/C=C2/CC3C4CC=C5CC(O)CCC5(C)C4CCC3(C)C2O)o1 (stereo unspecified) | 0.237 | 0.613 |
| CC(c1ccccc1)n1cncc1C(=O)O (stereo unspecified) | 0.254 | 0.612 |
| CCc1ccccc1N1C(=O)NC(=O)/C(=C/c2ccc(OCc3cccc(F)c3)c(Br)c2)C1=O | 0.256 | 0.628 |
| Cc1ccc2c(c1)c(=O)c1c3n2CCN(CC#N)C3CC1 (stereo unspecified) | 0.265 | 0.624 |
| Cc1nn(-c2ccccc2)c2c1C(c1ccccc1)SCC(=O)N2 (stereo unspecified) | 0.248 | 0.613 |
| O=C1CSC(c2ccc(Br)cc2)c2c(-c3ccccc3)nn(-c3ccccc3)c2N1 (stereo unspecified) | 0.228 | 0.66 |
| CCCCn1c(=O)c(C(=O)Nc2nccs2)c(O)c2ccccc21 | 0.24 | 0.646 |
| COC(=O)CSC1=NN1c1cc(C)nc(N)n1 | 0.239 | 0.661 |
| CN1C2CCC1CC(=O)C2 | 0.23 | 0.606 |
| Cc1nn(Cc2ccccc2Cl)c(=N)s1 | 0.258 | 0.625 |
| CC(c1ccccc1)C1C(C#N)=C(N)Oc2c1c(=O)oc1ccccc21 (stereo unspecified) | 0.241 | 0.594 |
| c1ccc2c(c1)-c1cccc3cccc-2c13 | 0.255 | 0.617 |
| CCN(CC)c1ccc(C=C2C(=O)N(C)C(=O)N(C)C2=O)c(OCc2ccc(Cl)cc2Cl)c1 | 0.248 | 0.654 |
| Cc1ccc2c(c1)[C@@H]1CN(C)CC[C@H]1N2C(=S)NC1CCCCC1 | 0.25 | 0.6 |
| CN1C(=O)N(C)C(=O)C(CCc2ccncc2)(Cc2cccs2)C1=O | 0.256 | 0.627 |
| CC1=CC(=C2C(=O)NC(=S)NC2=O)C=C(C(F)(F)F)N1CC1CCCO1 (stereo unspecified) | 0.242 | 0.607 |
| CN1C(=O)CN=C(c2ccccc2)c2ccccc21 | 0.242 | 0.615 |
| C=CC1CN2CCC1CC2C(OC(C)=O)c1ccnc2ccc(OC)cc12 (stereo unspecified) | 0.252 | 0.625 |

| Compound | plate-normalized OD600 growth (temperature: 15°C, 48 h) | plate-normalized OD600 growth (temperature: 37°C, 24 h) |
| --- | --- | --- |
| COc1cc(CC2C(=O)N(C)C(=O)N(C)C2=O)ccc1OCc1ccccc1 | 0.255 | 0.617 |
| CCc1ccccc1N1C(=O)CC(=O)N(C2CCCCC2)C1=O | 0.252 | 0.647 |
| O=C(C1CCCCN1)N1CCN(Cc2cccnc2)CC1 (stereo unspecified) | 0.243 | 0.607 |
| CCOP(=S)(NN(Cc1ccccc1)C(=O)c1ccccc1)OCC | 0.249 | 0.656 |
| CCOC(=O)C1=C(N)OC(c2ccccc2)=C(C(=O)OCC)C12C(=O)Nc1ccccc12 (stereo unspecified) | 0.255 | 0.617 |
| CCOP(=S)(S)OCC.c1cncc(C2CCCCN2)c1 (stereo unspecified) | 0.241 | 0.614 |
| COc1ccc2[nH]c(C)c(CCNCc3cccc4ccccc34)c2c1 | 0.245 | 0.622 |
| Cc1ccc2c(c1)[C@@H]1CN(C)CC[C@@H]1N2C(=O)C12CC3CC(CC(C3)C1)C2 | 0.217 | 0.613 |
| O=C1NC(=O)C(C(CC(=O)c2ccc(Cl)cc2)c2ccc(Cl)cc2)C(=O)N1 (stereo unspecified) | 0.242 | 0.652 |
| COc1cc(Br)c(/C=C2\C(=O)NC(=O)N(c3ccccc3)C2=O)cc1OC | 0.237 | 0.611 |
| O=C(C[N+]12CCC(CC1)C(C(O)(c1ccccc1)c1ccccc1)C2)c1ccc(Br)cc1 (stereo unspecified) | 0.241 | 0.624 |
| [Se]C(=NCc1ccccc1)NCc1ccccc1 | 0.251 | 0.599 |
| CCN(CC)C(=O)NC1C(N[N+](=O)[O-])N(S(C)(=O)=O)CN1S(C)(=O)=O (stereo unspecified) | 0.225 | 0.632 |
| CCc1ccccc1N1C(=O)CC(=O)N(c2cccc(Cl)c2)C1=O | 0.247 | 0.6 |
| O=C1NC(=S)NC(=O)C1=Cc1ccco1 | 0.243 | 0.61 |
| c1ccc2c(c1)CCc1c-2[nH]c2ccccc12 | 0.266 | 0.607 |
| O=C1NC(=S)N(c2ccccc2)C(=O)/C1=C/c1ccoc1 | 0.252 | 0.624 |
| Clc1cc(Cl)cc(Br)c1 | 0.248 | 0.615 |
| CCC(=Nc1ccccc1N)c1c(O)n(C)c(=O)n(C)c1=O | 0.247 | 0.631 |

Full records, quoted from the list. Values in the order: plate-normalized OD600 growth (temperature: 15°C, 48 h)	plate-normalized OD600 growth (temperature: 37°C, 24 h)
`O=C(C1CCCCN1)N1CCN(Cc2cccnc2)CC1` (stereo unspecified) is listed with 0.243	0.607
`CCc1ccccc1N1C(=O)CC(=O)N(C2CCCCC2)C1=O` is listed with 0.252	0.647
